# Laboratory results from US9049863B2, “Substituted (3R,4R)-4-cyan-3,4-diphenylbutanoates, method for the production thereof and use thereof as herbicides and plant growth regulators” (Bayer Intellectual Property GmbH, priority 2011, dated 2015).
# Some results were stated once for a whole list of compounds, not compound by compound. Some ranges recur; such a range may be that of the whole group of compounds.
# Assays:
# Assay type in all cases: in vivo
# [1] = system: Alopecurus myosuroides; test: Herbicidal post-emergence action; conditions: 0.32 kg of active substance per hectare, about 3 weeks
# [2] = system: Echinochloa crus galli; test: Herbicidal pre-emergence action; conditions: 0.32 kg of active substance per hectare, after about 3 weeks
# [3] = system: Alopecurus myosuroides; test: Herbicidal pre-emergence action; conditions: 0.32 kg of active substance per hectare, after about 3 weeks
# [4] = system: wheat; test: Herbicidal action and crop plant compatibility, pre-emergence (3.2); conditions: 80 g/ha, about 4 weeks
# [5] = system: wheat; test: Crop plant compatibility, pre-emergence (3.1); conditions: 320 g/ha
# [6] = system: Viola tricolor; test: Herbicidal action and crop plant compatibility, pre-emergence (3.2); conditions: 80 g/ha, about 4 weeks
# From the text: (§1) 3.2 In further trials in the greenhouse, seeds of crop plants and seeds of harmful plants are placed in pots in sandy loam soil, covered with earth and cultivated under good growth conditions. The compounds (I) according to the invention, formulated in the form of wettable powders (WP), are then applied as aqueous suspension or emulsion at a water application rate of 300 l/ha (converted) with the addition of 0.2% of wetting agent to the surface of the covering soil. After the test plants have been kept in the greenhouse under optimum growth conditions for about 4 weeks, the activity of the preparations is rated visually in comparison to untreated controls in percent (%): For example, 100% activity=the plants have died, 50% herbicidal activity or damage=the plants have been reduced by 50% or the plant mass has been reduced by 50%, 0% activity=like control plants.
# [7] = system: Echinochloa crus-galli; test: as above; conditions: 80 g/ha, about 4 weeks
# From the text: as §1
# [8] = system: Setaria viridis; test: as above; conditions: 80 g/ha, about 4 weeks
# From the text: as §1
# [9] = system: Veronica persica; test: Herbicidal post-emergence action; conditions: 0.32 kg of active substance per hectare, about 3 weeks
# [10] = system: Echinochloa crus galli; test: Herbicidal post-emergence action; conditions: 0.32 kg of active substance per hectare, about 3 weeks
# [11] = system: Amaranthus retroflexus; test: Herbicidal pre-emergence action; conditions: 0.32 kg of active substance per hectare, after about 3 weeks
# [12] = system: Setaria viridis; test: Herbicidal pre-emergence action; conditions: 0.32 kg of active substance per hectare, after about 3 weeks
# [13] = system: corn; test: Herbicidal action and crop plant compatibility, pre-emergence (3.2); conditions: 80 g/ha, about 4 weeks
# [14] = system: rice; test: Herbicidal action and crop plant compatibility, post-emergence (3.3); conditions: 80 g/ha, 4 weeks after the treatment
# [15] = system: Lolium multiflorum; test: Herbicidal pre-emergence action; conditions: 0.32 kg of active substance per hectare, after about 3 weeks
# [16] = system: Echinochloa crus-galli; test: Herbicidal action and crop plant compatibility, post-emergence (3.3); conditions: 80 g/ha, 4 weeks after the treatment
# Procedure: 3.3 In further trials in the greenhouse, seeds of crop plants and seeds of harmful plants are placed in pots in sandy loam soil, covered with earth and cultivated under good growth conditions. The test plants are treated at the 2-3-leaf stage, where the compounds (I) according to the invention, formulated in the form of wettable powders (WP), are applied by spraying as aqueous suspension or emulsion at a water application rate of […] (converted) with the addition of 0.2% of wetting agent to the green parts of the plants. 4 weeks after the treatment and after the test plants have been kept in the greenhouse under optimum growth conditions, the activity of the preparations is rated visually in comparison to untreated controls in percent (%): For example, 100% activity=the plants have died, 50% herbicidal activity or damage=the plants have been reduced by 50% or the plant mass has been reduced by 50%, 0% activity=like control plants.
# [17] = system: Veronica persica; test: Herbicidal pre-emergence action; conditions: 0.32 kg of active substance per hectare, after about 3 weeks
# [18] = system: Alopecurus myosuroides; test: Herbicidal action and crop plant compatibility, pre-emergence (3.2); conditions: 80 g/ha, about 4 weeks
# From the text: as §1
# [19] = system: Stellaria media; test: Herbicidal pre-emergence action; conditions: 0.32 kg of active substance per hectare, after about 3 weeks
SMILES,herbicidal activity against Alopecurus myosuroides [1] [%],herbicidal activity against Echinochloa crus galli [2],herbicidal activity against Alopecurus myosuroides [3],selectivity in wheat (damage) [4],selectivity in wheat (damage) [5],herbicidal activity against Viola tricolor [6] [%],herbicidal activity against Echinochloa crus-galli [7] [%],herbicidal activity against Setaria viridis [8] [%],herbicidal activity against Veronica persica [9] [%],herbicidal activity against Echinochloa crus galli [10],herbicidal activity against Amaranthus retroflexus [11],herbicidal activity against Setaria viridis [12],selectivity in corn (damage) [13],selectivity in rice (damage) [14],herbicidal activity against Lolium multiflorum [15],herbicidal activity against Echinochloa crus-galli [16] [%],herbicidal activity against Veronica persica [17],herbicidal activity against Alopecurus myosuroides [18] [%],herbicidal activity against Stellaria media [19] [%]
COC(=O)C[C@@H](c1cccc(Cl)c1)[C@@H](C#N)c1ccc(F)cc1 [Example 15],90 to 100,90-100%,90-100%,less than 10%,less than 30%,75 to 100,75 to 100,75 to 100,90 to 100,90-100%,90-100%,90-100%,,,,,,,
COC(=O)C[C@@H](c1cccc(Cl)c1)[C@@H](C#N)c1ccc(Cl)c(F)c1 [Example 27],90 to 100,90-100%,90-100%,,less than 30%,,75 to 100,75 to 100,90 to 100,,,90-100%,less than 10%,less than 20%,90-100%,75 to 100,90-100%,75 to 100,90 to 100
CCCCOC(=O)C[C@@H](c1cccc(F)c1)[C@@H](C#N)c1ccc(F)c(F)c1 [Example 86],,90-100%,90-100%,,,,,,,,90-100%,90-100%,,,90-100%,75 to 100,90-100%,,
